The list shows a part of the results. The calls rarely recur for the same compound in another form.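 Kinases were expressed as nanoluciferase fusions in K562 cells and luminescence was read every 4 h between 2 and 18 h as percent of control, DMSO set to 100% and a positive control to 0%. A time point counts as decreased when the signal drops significantly (2 sigma). The hit call is the authors' own, does not follow from the count of time points alone, and its rule is not shown.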
Experiments:
Experiment in all cases: kinase-Nluc reporter destabilization hit call (1 = scored as downregulated) (binary); higher = compound decreases kinase abundance
Conditions in all cases: K562; 2-18 h
[1] = molecular target: ERN1 (UniProt O75460)
[2] = molecular target: FGFR1 (UniProt P11362)
[3] = molecular target: FGFR2 (UniProt P21802)
[4] = molecular target: FGFR3 (UniProt P22607)
[5] = molecular target: FGR (UniProt P09769)
[6] = molecular target: FLT3 (UniProt P36888)
[7] = molecular target: FYN (UniProt P06241)
[8] = molecular target: GSK3A (UniProt P49840)
[9] = molecular target: HER2 (UniProt P04626)
[10] = molecular target: INSRR (UniProt P14616)

Chains of the proteins cited; added tags and fusions are not shown. Lines headed by an entry give the natural chain unless they say otherwise; changes in a name come on top.
UniProt O75460: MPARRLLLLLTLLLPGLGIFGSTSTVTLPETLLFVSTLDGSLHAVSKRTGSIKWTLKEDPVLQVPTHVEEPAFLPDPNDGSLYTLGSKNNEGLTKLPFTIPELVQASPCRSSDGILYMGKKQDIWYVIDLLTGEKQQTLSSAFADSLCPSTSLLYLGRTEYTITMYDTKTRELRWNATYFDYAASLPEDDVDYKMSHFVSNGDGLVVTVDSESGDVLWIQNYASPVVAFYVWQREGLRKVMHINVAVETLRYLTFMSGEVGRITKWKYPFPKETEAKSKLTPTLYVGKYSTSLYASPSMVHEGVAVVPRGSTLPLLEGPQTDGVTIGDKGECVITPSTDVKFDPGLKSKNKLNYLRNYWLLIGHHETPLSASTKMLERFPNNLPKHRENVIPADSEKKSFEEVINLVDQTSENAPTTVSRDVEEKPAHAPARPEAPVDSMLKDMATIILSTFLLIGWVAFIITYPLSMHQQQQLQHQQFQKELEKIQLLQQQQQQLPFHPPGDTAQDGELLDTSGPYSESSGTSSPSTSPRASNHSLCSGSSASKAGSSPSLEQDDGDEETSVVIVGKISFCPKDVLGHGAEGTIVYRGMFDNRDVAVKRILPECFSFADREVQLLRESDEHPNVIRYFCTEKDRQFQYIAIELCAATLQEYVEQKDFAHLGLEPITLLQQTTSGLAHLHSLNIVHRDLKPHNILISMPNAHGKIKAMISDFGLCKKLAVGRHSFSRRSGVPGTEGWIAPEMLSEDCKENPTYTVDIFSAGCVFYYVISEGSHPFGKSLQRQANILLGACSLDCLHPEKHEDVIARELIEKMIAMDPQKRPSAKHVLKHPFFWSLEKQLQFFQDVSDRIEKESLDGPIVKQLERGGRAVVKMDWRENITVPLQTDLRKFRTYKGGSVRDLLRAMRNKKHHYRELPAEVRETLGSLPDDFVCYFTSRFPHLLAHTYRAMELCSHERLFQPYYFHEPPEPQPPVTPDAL
UniProt P11362, whole entry, looked up: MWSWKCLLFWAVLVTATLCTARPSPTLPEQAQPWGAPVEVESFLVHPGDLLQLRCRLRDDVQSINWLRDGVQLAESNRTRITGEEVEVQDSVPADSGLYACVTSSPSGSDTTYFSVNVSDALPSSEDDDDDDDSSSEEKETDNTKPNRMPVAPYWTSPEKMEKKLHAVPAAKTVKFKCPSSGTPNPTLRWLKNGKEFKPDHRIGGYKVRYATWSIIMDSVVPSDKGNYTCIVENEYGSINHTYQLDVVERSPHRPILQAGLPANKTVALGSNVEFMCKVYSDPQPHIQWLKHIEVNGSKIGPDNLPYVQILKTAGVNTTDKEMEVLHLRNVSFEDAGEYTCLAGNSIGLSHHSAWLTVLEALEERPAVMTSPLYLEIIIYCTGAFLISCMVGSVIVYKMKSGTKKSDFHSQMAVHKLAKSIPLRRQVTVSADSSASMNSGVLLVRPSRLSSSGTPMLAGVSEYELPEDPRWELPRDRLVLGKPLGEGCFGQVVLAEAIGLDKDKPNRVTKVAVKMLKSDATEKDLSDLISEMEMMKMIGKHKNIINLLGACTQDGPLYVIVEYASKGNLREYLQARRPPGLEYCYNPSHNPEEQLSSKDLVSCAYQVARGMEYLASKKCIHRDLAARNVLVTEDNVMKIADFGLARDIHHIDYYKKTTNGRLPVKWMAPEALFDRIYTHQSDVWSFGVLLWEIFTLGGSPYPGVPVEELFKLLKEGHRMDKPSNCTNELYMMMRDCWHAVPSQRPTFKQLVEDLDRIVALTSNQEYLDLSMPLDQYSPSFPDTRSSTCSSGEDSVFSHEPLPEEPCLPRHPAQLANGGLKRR
UniProt P21802, whole entry, looked up: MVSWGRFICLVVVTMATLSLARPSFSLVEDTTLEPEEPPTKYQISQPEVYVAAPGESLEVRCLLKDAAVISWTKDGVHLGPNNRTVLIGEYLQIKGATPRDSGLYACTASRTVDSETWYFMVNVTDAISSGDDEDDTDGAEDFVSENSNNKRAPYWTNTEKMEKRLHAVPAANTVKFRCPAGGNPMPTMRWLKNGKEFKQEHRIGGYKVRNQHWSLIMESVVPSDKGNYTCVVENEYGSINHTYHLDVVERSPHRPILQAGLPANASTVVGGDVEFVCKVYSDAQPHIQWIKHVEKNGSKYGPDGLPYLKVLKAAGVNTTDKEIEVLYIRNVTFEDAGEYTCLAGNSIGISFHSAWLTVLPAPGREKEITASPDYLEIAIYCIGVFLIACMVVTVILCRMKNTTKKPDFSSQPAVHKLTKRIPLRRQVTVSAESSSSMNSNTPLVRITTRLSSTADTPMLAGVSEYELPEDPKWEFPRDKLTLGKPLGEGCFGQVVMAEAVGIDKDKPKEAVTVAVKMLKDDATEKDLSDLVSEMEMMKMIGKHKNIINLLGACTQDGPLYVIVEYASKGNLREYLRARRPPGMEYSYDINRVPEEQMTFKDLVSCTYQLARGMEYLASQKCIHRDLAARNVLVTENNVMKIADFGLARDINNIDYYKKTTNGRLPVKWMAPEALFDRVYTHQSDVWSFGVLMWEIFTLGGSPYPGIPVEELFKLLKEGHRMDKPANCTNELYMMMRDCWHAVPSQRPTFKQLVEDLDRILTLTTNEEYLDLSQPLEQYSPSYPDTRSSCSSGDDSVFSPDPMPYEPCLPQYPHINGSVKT
UniProt P22607, whole entry, looked up: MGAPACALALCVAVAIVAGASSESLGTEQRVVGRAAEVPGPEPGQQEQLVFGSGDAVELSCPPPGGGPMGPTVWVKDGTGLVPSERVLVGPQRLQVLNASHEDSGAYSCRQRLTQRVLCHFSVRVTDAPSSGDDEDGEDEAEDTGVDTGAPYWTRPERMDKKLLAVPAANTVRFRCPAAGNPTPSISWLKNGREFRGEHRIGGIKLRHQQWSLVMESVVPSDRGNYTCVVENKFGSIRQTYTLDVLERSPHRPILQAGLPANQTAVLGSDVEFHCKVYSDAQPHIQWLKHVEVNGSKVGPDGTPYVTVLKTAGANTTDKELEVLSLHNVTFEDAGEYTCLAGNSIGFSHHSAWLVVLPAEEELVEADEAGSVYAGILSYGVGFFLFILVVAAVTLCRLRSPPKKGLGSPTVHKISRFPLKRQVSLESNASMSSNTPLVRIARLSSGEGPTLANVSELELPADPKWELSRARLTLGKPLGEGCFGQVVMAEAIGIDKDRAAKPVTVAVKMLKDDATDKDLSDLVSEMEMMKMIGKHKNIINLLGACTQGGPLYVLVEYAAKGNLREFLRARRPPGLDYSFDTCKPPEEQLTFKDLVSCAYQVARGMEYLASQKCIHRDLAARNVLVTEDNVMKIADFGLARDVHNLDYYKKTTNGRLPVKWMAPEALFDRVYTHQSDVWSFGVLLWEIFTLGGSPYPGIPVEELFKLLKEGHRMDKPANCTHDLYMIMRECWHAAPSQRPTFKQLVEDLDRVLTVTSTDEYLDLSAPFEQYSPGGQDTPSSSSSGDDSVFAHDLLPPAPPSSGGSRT
UniProt P36888, whole entry: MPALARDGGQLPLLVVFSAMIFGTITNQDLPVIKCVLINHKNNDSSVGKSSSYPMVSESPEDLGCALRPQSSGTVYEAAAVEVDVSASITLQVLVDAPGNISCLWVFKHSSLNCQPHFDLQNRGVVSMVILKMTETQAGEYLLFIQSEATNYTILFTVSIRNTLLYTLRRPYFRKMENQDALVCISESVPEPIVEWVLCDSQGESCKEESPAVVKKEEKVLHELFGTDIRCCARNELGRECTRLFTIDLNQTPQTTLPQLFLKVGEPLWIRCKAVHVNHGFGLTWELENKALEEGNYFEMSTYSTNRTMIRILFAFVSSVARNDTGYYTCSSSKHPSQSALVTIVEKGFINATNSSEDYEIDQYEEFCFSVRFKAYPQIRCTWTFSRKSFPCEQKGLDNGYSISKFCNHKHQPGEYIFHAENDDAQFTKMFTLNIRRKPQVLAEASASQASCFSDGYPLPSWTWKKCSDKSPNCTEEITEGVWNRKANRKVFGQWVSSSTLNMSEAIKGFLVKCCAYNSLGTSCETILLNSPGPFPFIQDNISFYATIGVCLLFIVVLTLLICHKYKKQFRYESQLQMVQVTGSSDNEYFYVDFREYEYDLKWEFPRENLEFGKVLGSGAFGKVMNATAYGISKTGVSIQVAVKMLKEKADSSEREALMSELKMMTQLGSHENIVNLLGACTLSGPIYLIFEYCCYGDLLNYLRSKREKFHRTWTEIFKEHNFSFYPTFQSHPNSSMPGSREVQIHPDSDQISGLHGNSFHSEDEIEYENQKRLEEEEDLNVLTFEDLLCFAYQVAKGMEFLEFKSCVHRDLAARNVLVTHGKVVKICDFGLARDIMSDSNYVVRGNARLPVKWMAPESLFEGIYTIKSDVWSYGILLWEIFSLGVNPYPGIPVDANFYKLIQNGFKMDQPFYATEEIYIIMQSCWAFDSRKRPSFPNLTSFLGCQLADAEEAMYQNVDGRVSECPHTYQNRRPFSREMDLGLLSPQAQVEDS
UniProt P06241, whole entry, looked up: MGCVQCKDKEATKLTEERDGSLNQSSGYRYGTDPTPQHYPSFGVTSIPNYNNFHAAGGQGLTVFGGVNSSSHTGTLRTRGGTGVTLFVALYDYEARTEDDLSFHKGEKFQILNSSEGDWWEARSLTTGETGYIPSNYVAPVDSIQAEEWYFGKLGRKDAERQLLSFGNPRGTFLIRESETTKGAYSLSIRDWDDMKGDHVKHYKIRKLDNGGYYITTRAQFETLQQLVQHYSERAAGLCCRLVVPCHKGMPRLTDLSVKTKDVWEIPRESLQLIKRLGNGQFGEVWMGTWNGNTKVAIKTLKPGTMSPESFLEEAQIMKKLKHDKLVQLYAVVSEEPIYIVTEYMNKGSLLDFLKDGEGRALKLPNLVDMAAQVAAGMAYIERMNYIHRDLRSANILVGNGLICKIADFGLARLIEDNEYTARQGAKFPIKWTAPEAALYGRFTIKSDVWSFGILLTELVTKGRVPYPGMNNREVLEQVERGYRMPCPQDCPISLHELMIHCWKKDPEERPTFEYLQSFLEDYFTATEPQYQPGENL
UniProt P14616: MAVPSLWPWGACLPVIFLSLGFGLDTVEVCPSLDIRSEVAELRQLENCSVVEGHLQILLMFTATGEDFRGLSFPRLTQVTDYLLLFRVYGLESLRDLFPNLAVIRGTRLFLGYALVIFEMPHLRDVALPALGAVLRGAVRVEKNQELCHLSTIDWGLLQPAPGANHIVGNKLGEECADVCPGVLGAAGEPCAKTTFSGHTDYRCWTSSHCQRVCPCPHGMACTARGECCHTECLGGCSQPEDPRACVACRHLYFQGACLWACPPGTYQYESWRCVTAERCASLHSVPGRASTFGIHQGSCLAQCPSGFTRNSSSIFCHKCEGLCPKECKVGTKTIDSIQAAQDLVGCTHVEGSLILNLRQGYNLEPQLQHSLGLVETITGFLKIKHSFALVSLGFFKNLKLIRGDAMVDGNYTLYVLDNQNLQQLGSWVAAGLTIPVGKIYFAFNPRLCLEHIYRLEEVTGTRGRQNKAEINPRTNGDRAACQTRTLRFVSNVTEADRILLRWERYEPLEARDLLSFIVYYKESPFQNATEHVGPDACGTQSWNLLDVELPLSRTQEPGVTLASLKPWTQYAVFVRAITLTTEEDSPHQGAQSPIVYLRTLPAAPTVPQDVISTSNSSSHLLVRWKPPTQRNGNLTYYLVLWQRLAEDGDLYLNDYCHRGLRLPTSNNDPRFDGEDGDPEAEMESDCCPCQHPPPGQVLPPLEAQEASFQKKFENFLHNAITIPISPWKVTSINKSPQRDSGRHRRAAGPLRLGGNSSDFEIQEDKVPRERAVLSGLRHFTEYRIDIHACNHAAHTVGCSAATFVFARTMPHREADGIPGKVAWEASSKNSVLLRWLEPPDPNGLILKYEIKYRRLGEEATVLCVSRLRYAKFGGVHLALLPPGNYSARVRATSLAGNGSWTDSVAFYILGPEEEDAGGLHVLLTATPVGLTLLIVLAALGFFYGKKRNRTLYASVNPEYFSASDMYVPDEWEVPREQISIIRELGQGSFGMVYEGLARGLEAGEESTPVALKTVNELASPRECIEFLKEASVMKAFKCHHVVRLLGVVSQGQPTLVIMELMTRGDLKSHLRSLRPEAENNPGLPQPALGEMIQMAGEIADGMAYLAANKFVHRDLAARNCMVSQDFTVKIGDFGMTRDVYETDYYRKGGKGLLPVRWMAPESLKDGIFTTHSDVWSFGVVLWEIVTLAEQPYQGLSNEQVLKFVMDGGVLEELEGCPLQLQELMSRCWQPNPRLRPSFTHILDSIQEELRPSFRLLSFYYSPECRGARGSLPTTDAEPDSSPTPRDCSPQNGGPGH

Measured: kinase-Nluc reporter destabilization hit call

COc1ccc(CN2C3CC2CN(c2ccc(-c4cc(OCC(C)(C)O)cn5ncc(C#N)c45)cn2)C3)cn1 [Selpercatinib] (10 µM)
inactive: [1] 0 | [2] 0 | [3] 0 | [4] 0 | [5] 0 | [6] 0 | [7] 0 | [8] 0 | [9] 0 | [10] 0

COc1cc(N2CCC(O)CC2)ccc1Nc1cc(Nc2ccccc2S(=O)(=O)C(C)C)c2cc[nH]c2n1 (10 µM)
inactive: [1] 0 | [2] 0 | [3] 0 | [4] 0 | [5] 0 | [6] 0 | [7] 0 | [8] 0 | [9] 0 | [10] 0

O=C(Nc1ccc(Cl)c(Cl)c1)Nc1ccc2nnsc2c1 (10 µM)
inactive: [1] 0 | [2] 0 | [3] 0 | [4] 0 | [5] 0 | [6] 0 | [7] 0 | [8] 0 | [9] 0 | [10] 0

CC1(N)CCN(c2cnc3c(-c4cccc(Cl)c4Cl)[nH]nc3n2)CC1 (2.5 µM)
inactive: [1] 0 | [2] 0 | [3] 0 | [4] 0 | [5] 0 | [6] 0 | [7] 0 | [8] 0 | [9] 0 | [10] 0

C=CC(=O)Nc1cccc(-n2c(=O)cc(C)c3cnc(Nc4ccc(OCCN(C)C)cc4OC)nc32)c1 (10 µM)
inactive: [1] 0 | [2] 0 | [3] 0 | [4] 0 | [5] 0 | [6] 0 | [7] 0 | [8] 0 | [9] 0 | [10] 0

Cc1ccc(-c2nn(C(C)(C)CNC(=O)c3ccncc3)c3ncnc(N)c23)cc1 (2.5 µM)
inactive: [1] 0 | [2] 0 | [3] 0 | [4] 0 | [5] 0 | [6] 0 | [7] 0 | [8] 0 | [9] 0 | [10] 0

CCOc1ccccc1C=C1C(=O)Nc2ccccc21 (10 µM)
inactive: [1] 0 | [2] 0 | [3] 0 | [4] 0 | [5] 0 | [6] 0 | [7] 0 | [8] 0 | [9] 0 | [10] 0

C[C@@H]1C[C@H]2O[C@@]3(O[C@@H]2C(C)(C)O)[C@H](O)[C@@]2(C)[C@@H]4CC[C@H]5C(C)(C)[C@@H](O[C@@H]6OC[C@H](O)[C@H](O)[C@H]6O)CC[C@@]56C[C@@]46CC[C@]2(C)[C@@H]13 [Cimiracemoside C] (10 µM)
inactive: [1] 0 | [2] 0 | [3] 0 | [4] 0 | [5] 0 | [6] 0 | [7] 0 | [8] 0 | [9] 0 | [10] 0

COc1ccc(CNc2nc(N(CCO)CCO)nc3c2ncn3C(C)C)cc1 (2.5 µM)
inactive: [1] 0 | [2] 0 | [3] 0 | [4] 0 | [5] 0 | [6] 0 | [7] 0 | [8] 0 | [9] 0 | [10] 0

[O-][n+]1cccc(-c2nc3c(Cl)cccc3cc2[C@@H](Nc2ncnc3cccnc23)C(F)(F)F)c1 [Seletalisib] (10 µM)
inactive: [1] 0 | [2] 0 | [3] 0 | [4] 0 | [5] 0 | [6] 0 | [7] 0 | [8] 0 | [9] 0 | [10] 0

CCc1c(C)sc(NC(=S)NC(=O)c2ccc(Cl)cc2)c1C(N)=O (10 µM)
inactive: [1] 0 | [2] 0 | [3] 0 | [4] 0 | [5] 0 | [6] 0 | [7] 0 | [8] 0 | [9] 0 | [10] 0

CC[C@@H]1[C@H](F)C(=O)N[C@@H]1COc1nccc2cc(C(N)=O)c(OC)cc12 (10 µM)
inactive: [1] 0 | [2] 0 | [3] 0 | [4] 0 | [5] 0 | [6] 0 | [7] 0 | [8] 0 | [9] 0 | [10] 0

COc1c(C)c(C(=O)c2ccc(N)c(C(=O)O)c2)n2ccccc12 (10 µM)
inactive: [1] 0 | [2] 0 | [3] 0 | [4] 0 | [5] 0 | [6] 0 | [7] 0 | [8] 0 | [9] 0 | [10] 0

O=[N+]([O-])c1ccc(Sc2cccc[n+]2[O-])c2nonc12 (2.5 µM)
inactive: [1] 0 | [2] 0 | [3] 0 | [4] 0 | [5] 0 | [6] 0 | [7] 0 | [8] 0 | [9] 0 | [10] 0

CC[C@H](C)[C@H](NC(=O)[C@H](CCC(=O)O)NC(=O)[C@H](CCCN=C(N)N)NC(=O)[C@H](CCCN=C(N)N)NC(=O)[C@@H](N)CCCCN)C(=O)N[C@@H](CC(C)C)C(=O)N[C@@H](CO)C(=O)N[C@@H](CCCN=C(N)N)C(=O)N[C@@H](CCCN=C(N)N)C(=O)N1CCC[C@H]1C(=O)N[C@@H](CO)C(=O)N[C@@H](Cc1ccc(O)cc1)C(=O)N[C@@H](CCCN=C(N)N)C(=O)O [CREBtide] (10 µM)
inactive: [1] 0 | [2] 0 | [3] 0 | [4] 0 | [5] 0 | [6] 0 | [7] 0 | [8] 0 | [9] 0 | [10] 0

CC(C)c1ccc(CC(=O)N2CCN(c3ccc(C#N)nn3)CC2)cc1 (10 µM)
inactive: [1] 0 | [2] 0 | [3] 0 | [4] 0 | [5] 0 | [6] 0 | [7] 0 | [8] 0 | [9] 0 | [10] 0

CN(C)c1nc2c(Br)c(Br)c(Br)c(Br)c2n1CC(=O)O (10 µM)
inactive: [1] 0 | [2] 0 | [3] 0 | [4] 0 | [5] 0 | [6] 0 | [7] 0 | [8] 0 | [9] 0 | [10] 0

C[C@@H]1COCCN1c1cc(C2([S@](C)(=N)=O)CC2)nc(-c2cc[nH]c3nccc2-3)n1 [Ceralasertib] (2.5 µM)
inactive: [1] 0 | [2] 0 | [3] 0 | [4] 0 | [5] 0 | [6] 0 | [7] 0 | [8] 0 | [9] 0 | [10] 0

Nc1[nH]c(=O)nc2c1ncn2[C@@H]1O[C@H](CO)[C@@H](O)[C@H]1O [Crotonoside] (10 µM)
inactive: [1] 0 | [2] 0 | [3] 0 | [4] 0 | [5] 0 | [6] 0 | [7] 0 | [8] 0 | [9] 0 | [10] 0

Cn1cc(-c2ccc3nnc(C(F)(F)c4ccc5ncccc5c4)n3n2)cn1 (10 µM)
inactive: [1] 0 | [2] 0 | [3] 0 | [4] 0 | [5] 0 | [6] 0 | [7] 0 | [8] 0 | [9] 0 | [10] 0

Nc1n[nH]c2cc(-c3ccc(=O)n(Cc4cccc(Cl)c4)c3)ccc12 (10 µM)
inactive: [1] 0 | [2] 0 | [3] 0 | [4] 0 | [5] 0 | [6] 0 | [7] 0 | [8] 0 | [9] 0 | [10] 0

Cc1cc2ncc(-c3ccccc3)nc2cc1C (10 µM)
inactive: [1] 0 | [2] 0 | [3] 0 | [4] 0 | [5] 0 | [6] 0 | [7] 0 | [8] 0 | [9] 0 | [10] 0

CCCNC(=O)c1cn2ncnc(Nc3cc(C(=O)NC4CC4)ccc3C)c2c1C (10 µM)
inactive: [1] 0 | [2] 0 | [3] 0 | [4] 0 | [5] 0 | [6] 0 | [7] 0 | [8] 0 | [9] 0 | [10] 0

CSc1ccc(CN2CCCC(Nc3ccc4[nH]ncc4c3)C2)cc1 (stereo not given) [Rho-Kinase-IN-1] (10 µM)
inactive: [1] 0 | [2] 0 | [3] 0 | [4] 0 | [5] 0 | [6] 0 | [7] 0 | [8] 0 | [9] 0 | [10] 0

O=C1NC(=O)/C(=C/c2ccc(-c3ccc(F)cc3O)o2)S1 (10 µM)
inactive: [1] 0 | [2] 0 | [3] 0 | [4] 0 | [5] 0 | [6] 0 | [7] 0 | [8] 0 | [9] 0 | [10] 0

O=S(=O)(c1cccc2cnccc12)N1CCNCC1 (10 µM)
inactive: [1] 0 | [2] 0 | [3] 0 | [4] 0 | [5] 0 | [6] 0 | [7] 0 | [8] 0 | [9] 0 | [10] 0

CCc1ccc(C(=O)COc2ccc(CC3SC(=O)NC3=O)cc2)nc1 (stereo not given) (10 µM)
inactive: [1] 0 | [2] 0 | [3] 0 | [4] 0 | [5] 0 | [6] 0 | [7] 0 | [8] 0 | [9] 0 | [10] 0

Ordered by count of non-hydrogen atoms (low to high): part of the list above
O=C1NC(=O)/C(=C/c2ccc(-c3ccc(F)cc3O)o2)S1 (10 µM)
inactive: [1] 0 | [2] 0 | [3] 0 | [4] 0 | [5] 0 | [6] 0 | [7] 0 | [8] 0 | [9] 0 | [10] 0

CSc1ccc(CN2CCCC(Nc3ccc4[nH]ncc4c3)C2)cc1 (stereo not given) [Rho-Kinase-IN-1] (10 µM)
inactive: [1] 0 | [2] 0 | [3] 0 | [4] 0 | [5] 0 | [6] 0 | [7] 0 | [8] 0 | [9] 0 | [10] 0

CCc1ccc(C(=O)COc2ccc(CC3SC(=O)NC3=O)cc2)nc1 (stereo not given) (10 µM)
inactive: [1] 0 | [2] 0 | [3] 0 | [4] 0 | [5] 0 | [6] 0 | [7] 0 | [8] 0 | [9] 0 | [10] 0

The results go on:

O=c1ccc2ccc(O)c(O)c2o1 [Daphnetin] (10 µM)
inactive: [1] 0 | [2] 0 | [3] 0 | [4] 0 | [5] 0 | [6] 0 | [7] 0 | [8] 0 | [9] 0 | [10] 0

O[C@H]1CC[C@H](Nc2ncc3nc(Nc4c(F)cc(F)cc4F)n([C@H]4CCOC4)c3n2)CC1 [Tanzisertib] (10 µM)
inactive: [1] 0 | [2] 0 | [3] 0 | [4] 0 | [5] 0 | [6] 0 | [7] 0 | [8] 0 | [9] 0 | [10] 0

From the supplement of paper PMC12823440, “Inhibitors supercharge kinase turnover through native proteolytic circuits” (Nature, 2025)
